Assay results as given in publication PMC10787639 (Frontiers in Molecular Biosciences, 2023).
No constants are given. Whether binding was seen depends on the method and setting. Binding calls can cover weak binding; strength is not graded here.

Biological target: Chaetomium thermophilum PCNA (proliferating cell nuclear antigen) (Chaetomium thermophilum)
Test: crystal structure; Ct PCNA (14 mg/mL) mixed with Ct Fen1 PIP peptide (8 mg/mL in DMSO); crystals in 2.4 M sodium malonate dibasic monohydrate pH 7.0; space group H32, one PCNA chain in the asymmetric unit; 1.95 A; both purified

binding: binds
Binder: GAQQARIEGFFKVIP [Ct Fen1 PIP peptide (15mer, residues 339-353)]
